Experimental data as given in the supplement of paper PMC9925115.
Only a part is listed here, and it is no random draw.

The molecules below were run on FLX1 + dox-induced PRKAR1A G325D (assay: difference in log2 fold change of viability vs plate median (dox-induced PRKAR1A G325D minus uninduced); higher = compound less effective when PKA is inhibited). Details: concentration: not stated (2 or 5 uM); 5 days.
Procedure: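 For each plate a log2 fold change vs the plate median was derived, and the values without dox were subtracted from those with dox, averaged over three biological replicates.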
With `Cc1ccccc1-n1c(Cn2nc(-c3cccc(O)c3)c3c(N)ncnc32)nc2cccc(C)c2c1=O` the “difference in log2 fold change of viability” value was 0.223. `Cc1nc2c(-c3cnc(N)nc3)nc(N3CCOCC3)nc2n1C(C)C` was tested, and the “difference in log2 fold change of viability” value was 0.679.
